# Experimental data published in PubChem BioAssay AID540276 (National Center for Advancing Translational Sciences (NCATS), 2011).
# Among all 300,000 compounds or so, about 5,400 (1.8%) were called active. The shares of active, inactive and inconclusive entries below differ from those in the screen. Calls follow the shape of the full dose curve; tested in HEK293 cells. Where the call is inconclusive, the potency comes from a doubtful curve fit.
# Experiment: qHTS for inhibitors of binding or entry into cells for Marburg Virus
# Settings: Marburg virus pseudotyped entry inhibition, cell reporter; series mostly up to 37.8 µM
# Potency is read from the fitted curve at half-maximal effect.
row,Structure (SMILES),Potency
1,O=C(NCc1ccccc1)c1ccccc1-c1nc2ccccc2[nH]1,inactive
2,CN(C)c1ccc(C2OC(=O)C3(CCCC3)C(=O)C2(C)C)cc1 (stereo not drawn),"inconclusive: 1.03 µM [inhibitor, single point]"
3,C=C(C)COc1ccc(-c2n[nH]c(C)c2-c2ccc(OC)c(OC)c2)c(O)c1,"inconclusive: 22.4 µM [inhibitor, partial curve, poor fit]"
4,Cc1nn2c(-c3cccc(NC(=O)c4ccc(Cl)cc4)c3)nnc2c2ccccc12,inactive
5,CCC(=O)Nc1cccc(NC(=O)c2ccc3c(c2)OCO3)c1,inactive
6,Cc1ccc(-c2nc3cc(Br)cnc3nc2-c2ccc(C)cc2)cc1,active: 3.16 µM
7,COc1ccc2cc3cc(C(=O)NCCc4ccc(OC)c(OC)c4)oc3nc2c1,"inconclusive: 2.51 µM [inhibitor, full curve, poor fit]"
8,O=C(Nc1ccccc1Cl)c1cc(=O)c2ccccc2o1,"inconclusive: 10 µM [activator, partial curve, poor fit]"
9,COc1ccccc1CNC(=O)c1oc2ccccc2c1C,"inconclusive: 3.16 µM [inhibitor, full curve]"
10,COc1cc(CN2CC(=O)N(c3ccccc3Cl)C2=S)cc(OC)c1OC,"inconclusive: 11.2 µM [inhibitor, partial curve, poor fit]"
11,O=C(NCC(=O)N(Cc1ccccc1)C(C(=O)NCC1CCCO1)c1ccccc1)c1cccs1 (stereo not drawn),"inconclusive: 29.1 µM [inhibitor, single point]"
12,Cc1cc(NC(=O)C2CCCC2)n(-c2nc3ccccc3[nH]2)n1,inactive
13,CCOc1ccc(-c2noc(CCCC(=O)NCC3CCCO3)n2)cc1OC (stereo not drawn),inactive
14,CN1/C(=C\C(=O)COC(=O)c2ccc(O)c(O)c2)C(C)(C)c2ccccc21,"inconclusive: 10 µM [inhibitor, partial curve, poor fit]"
15,CCOc1cc(/C=N/NS(=O)(=O)c2ccccc2)ccc1OS(=O)(=O)c1ccc(C)cc1,"inconclusive: 22.4 µM [inhibitor, partial curve, poor fit]"
16,O=C(CCN1C(=O)c2ccccc2C1=O)Nc1cccnc1,"inconclusive: 29.1 µM [activator, single point]"
17,O=c1cc(Nc2ccc3c(c2)OCO3)[nH]c(=O)n1-c1ccc(Br)cc1,"inconclusive: 7.3 µM [inhibitor, partial curve, poor fit]"
18,CC1(c2ccccc2)NC(=O)N(CC(=O)Nc2ccc(Cl)c(S(=O)(=O)N3CCCCC3)c2)C1=O (stereo not drawn),"inconclusive: 35.5 µM [inhibitor, single point]"
19,NS(=O)(=O)c1ccc(NS(=O)(=O)c2ccc(Br)cc2)cc1,"inconclusive: 2.82 µM [inhibitor, partial curve, poor fit]"
20,CC12CCC(C(=O)N(c3cccc(Cl)c3)C1=O)C2(C)C (stereo not drawn),"inconclusive: 0.708 µM [activator, partial curve, poor fit]"
21,NS(=O)(=O)c1ccc(CCNCc2ccccc2OCc2ccc(Cl)cc2)cc1,"inconclusive: 8.91 µM [inhibitor, partial curve, poor fit]"
22,CC1CCN(C(=O)COC(=O)CCC(=O)c2cccs2)CC1,inactive
23,Cc1nn(C)c2nc(-c3cccs3)cc(C(F)(F)F)c12,"inconclusive: 6.31 µM [inhibitor, single point]"

row,Structure (SMILES),Potency
1,COC(=O)C/C=C/[C@@H](C)[C@@H](/C=N/OC[C@@H](O)[C@H]1O[C@@H]2OC(C)(C)O[C@@H]2[C@H]1O)OC,inactive
2,NS(=O)(=O)c1ccc(CNC(=S)NC2CCCC2)cc1,"inconclusive: 3.55 µM [activator, single point]"
3,Cc1ccc(-c2nn(-c3ccccc3)c3[nH]c(=O)c(CNCc4ccccc4)cc23)cc1,"inconclusive: 18.3 µM [inhibitor, partial curve, poor fit]"
4,CCOc1ccc(C(C)=O)cc1CN1C(=O)NC2(CCCCCC2)C1=O,"inconclusive: 35.5 µM [inhibitor, single point]"
5,COc1ccc(/C(C)=N/NC(=O)CNC(=O)C2COc3ccccc3O2)c(OC)c1 (stereo not drawn),"inconclusive: 35.5 µM [activator, single point]"
6,COc1cccc(N2CCN(C(=S)NCc3ccco3)CC2)c1,inactive
7,FC(F)(F)c1nc2ccccc2n2c(-c3ccc(Cl)cc3)nnc12,"inconclusive: 12.6 µM [inhibitor, single point]"
8,Cc1c(NC(=O)/C(=C/c2cccs2)NC(=O)c2ccccc2)c(=O)n(-c2ccccc2)n1C,"inconclusive: 6.31 µM [inhibitor, single point]"
9,NC(=S)N/N=C/c1ccc(C(F)(F)F)cc1,inactive
10,COc1ccc(C2CC23N=C(c2ccccc2)OC3=O)cc1 (stereo not drawn),"inconclusive: 35.5 µM [inhibitor, single point]"
11,O=C(Cn1cnc2c(nnn2-c2ccc(F)cc2)c1=O)NCc1ccco1,inactive
12,Cc1nn2c3ccccc3nc2c2ccccc12,inactive
13,O=c1c2ccccc2nc(-c2ccoc2)n1-c1ccccc1Cl,"inconclusive: 16.4 µM [inhibitor, partial curve]"
14,C=CCc1c(C)nc(SC)nc1Nc1ccc(C)cc1,"inconclusive: 2.59 µM [inhibitor, partial curve, poor fit]"
15,O=C1C(C2=C(O)c3ccccc3C2=O)=Nc2ccccc21,"inconclusive: 14.6 µM [inhibitor, partial curve, poor fit]"
16,COc1ccc(CCNC(=O)c2ccc3c(c2)N(Cc2ccc(Cl)cc2)CCS3)c(OC)c1,"inconclusive: 2.51 µM [inhibitor, full curve, poor fit]"
17,Cc1cccc(C(=O)NCCCN2CCCC2=O)c1,"inconclusive: 11.2 µM [activator, partial curve, poor fit]"
18,O=[N+]([O-])c1cc(S(=O)(=O)C(F)(F)F)ccc1Sc1nc2ccccc2s1,"inconclusive: 35.5 µM [inhibitor, single point]"
19,CCCCCN1C(C(=O)c2ccccc2)=C(NC(=O)c2ccccc2Cl)c2ccccc2S1(=O)=O,inactive
20,Cc1ccc(/C=C/C(=O)O)cc1S(=O)(=O)N(CCO)CCO,inactive
21,Cc1c(CC(=O)O)c(=O)oc2c(C)c3occ(-c4ccccc4)c3cc12,"inconclusive: 12.6 µM [activator, partial curve, poor fit]"
22,O=C(O)CSc1cc(C(=O)c2ccccc2O)cn2c(=O)c3c4c(sc3nc12)CCCC4,inactive
23,O=C(C1CC(=O)N(c2ccccc2)C1)N1CCC(c2nc3ccccc3[nH]2)CC1 (stereo not drawn),inactive

# Among those listed so far, 3 contain an aryl thioether with sulfur outside any ring.
row,Structure (SMILES),Potency
14,C=CCc1c(C)nc(SC)nc1Nc1ccc(C)cc1,"inconclusive: 2.59 µM [inhibitor, partial curve, poor fit]"
18,O=[N+]([O-])c1cc(S(=O)(=O)C(F)(F)F)ccc1Sc1nc2ccccc2s1,"inconclusive: 35.5 µM [inhibitor, single point]"
22,O=C(O)CSc1cc(C(=O)c2ccccc2O)cn2c(=O)c3c4c(sc3nc12)CCCC4,inactive

# (list continues)

row,Structure (SMILES),Potency
1,N#Cc1cn(-c2ccccc2)nc1-c1ccc2c(c1)OCCO2,inactive
2,O=C(COC(=O)C1CCN(S(=O)(=O)c2ccc3c(c2)OCCO3)CC1)Nc1ccccc1OC(F)F,"inconclusive: 3.55 µM [activator, partial curve, poor fit]"
3,CCCCNC(=O)CCCCCn1c(=O)[nH]c2cc(C(=O)OC)ccc2c1=O,"inconclusive: 0.708 µM [inhibitor, full curve, poor fit]"
4,CCOC(=O)c1cc(-c2ccc(C)cc2)n(CCC(=O)Nc2ccc(OC)c(OC)c2)c1C,"inconclusive: 14.1 µM [inhibitor, single point]"
5,O=C(NCc1ccccn1)C1CCN(S(=O)(=O)c2cc(Cl)ccc2Cl)CC1,inactive
6,CC(=O)Nc1ccc(Oc2ccc(-c3noc(C)n3)cc2)cc1,inactive
7,O=C(COc1ccc(C(=S)N2CCOCC2)cc1Cl)Nc1ccccc1Cl,inactive
8,COc1ccc2c(c1OC)C(=O)N1c3ccccc3C(=O)N(c3ccccc3F)C21 (stereo not drawn),"inconclusive: 0.224 µM [inhibitor, full curve, poor fit]"
9,CC(=O)c1nn(-c2ccc(C)cc2)cc1C(=O)c1cccc(Br)c1,"inconclusive: 1.26 µM [inhibitor, single point]"
10,Cc1n[nH]c(C)c1Sc1ccccc1[N+](=O)[O-],"inconclusive: 35.5 µM [inhibitor, single point]"
11,Cc1cc(C)cc(-n2ccnc2SCC(=O)Nc2nccs2)c1,inactive
12,CC(C)CCSc1nc2c(c(=O)[nH]c(=O)n2C)n1CCCc1ccccc1,inactive
13,COc1ccc2nc(NC(=S)N(C)C)sc2c1,active: 10 µM
14,O=c1cc(CN2CCN(c3ccccc3F)CC2)c2cc(O)c(-c3ccccc3)cc2o1,"inconclusive: 0.0891 µM [inhibitor, full curve, poor fit]"
15,Fc1ccc(Cn2nnnc2C(c2cccs2)N2CCCCCC2)cc1 (stereo not drawn),"inconclusive: 14.6 µM [inhibitor, partial curve]"
16,CCc1nnc(NS(=O)(=O)c2ccc(NC(=O)c3ccc(S(=O)(=O)N(CC)CC)cc3)cc2)s1,inactive
17,CC(C)Cc1nnc(NC(=O)c2ccc(S(=O)(=O)N3CCCC3)cc2)s1,inactive
18,COc1cnc(-c2ccccc2)nc1Oc1ccc(C(C)(C)C)cc1,"inconclusive: 25.9 µM [inhibitor, single point]"
19,CC1=Cc2ccccc2C(C#N)N1C(=O)c1ccccc1 (stereo not drawn),"inconclusive: 12.6 µM [inhibitor, partial curve, poor fit]"
20,COc1ccc([N+](=O)[O-])cc1N(CC(O)CN1CCCCC1)S(=O)(=O)c1ccc(C)cc1 (stereo not drawn),"inconclusive: 35.5 µM [inhibitor, single point]"
21,O=C(NCc1ccco1)/C(=C\c1ccco1)NC(=O)c1ccccc1Cl,"inconclusive: 0.651 µM [inhibitor, partial curve, poor fit]"
22,COc1cccc(CN(C)CC(=O)Nc2cc(S(=O)(=O)N3CCCC3)ccc2Cl)c1OC,"inconclusive: 7.94 µM [inhibitor, partial curve, poor fit]"
